This experiment addresses heat-denatured ovalbumin (dOVA) (UniProt P01012). Description: ELISA, DOVA coated at 1 µg/ml, 80 nM tPA, with or without ellagic acid. For orientation: In an ELISA, binding on a coated surface is turned into a signal by an enzyme label.

Protein sequences, listed by entry. Tags and fused reporters are not part of them. Residues count along the entry.
UniProt P01012, residues 2-386: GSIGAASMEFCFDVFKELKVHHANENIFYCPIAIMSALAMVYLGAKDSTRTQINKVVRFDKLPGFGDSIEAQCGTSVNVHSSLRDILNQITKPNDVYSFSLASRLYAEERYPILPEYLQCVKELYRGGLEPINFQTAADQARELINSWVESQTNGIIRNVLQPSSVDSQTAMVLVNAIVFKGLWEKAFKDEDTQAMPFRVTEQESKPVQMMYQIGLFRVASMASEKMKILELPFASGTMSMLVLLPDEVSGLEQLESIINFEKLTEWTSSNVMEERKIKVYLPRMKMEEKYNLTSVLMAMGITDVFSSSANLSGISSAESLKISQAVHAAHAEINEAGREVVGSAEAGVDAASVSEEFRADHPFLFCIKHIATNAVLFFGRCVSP
UniProt P00750, residues 36-562: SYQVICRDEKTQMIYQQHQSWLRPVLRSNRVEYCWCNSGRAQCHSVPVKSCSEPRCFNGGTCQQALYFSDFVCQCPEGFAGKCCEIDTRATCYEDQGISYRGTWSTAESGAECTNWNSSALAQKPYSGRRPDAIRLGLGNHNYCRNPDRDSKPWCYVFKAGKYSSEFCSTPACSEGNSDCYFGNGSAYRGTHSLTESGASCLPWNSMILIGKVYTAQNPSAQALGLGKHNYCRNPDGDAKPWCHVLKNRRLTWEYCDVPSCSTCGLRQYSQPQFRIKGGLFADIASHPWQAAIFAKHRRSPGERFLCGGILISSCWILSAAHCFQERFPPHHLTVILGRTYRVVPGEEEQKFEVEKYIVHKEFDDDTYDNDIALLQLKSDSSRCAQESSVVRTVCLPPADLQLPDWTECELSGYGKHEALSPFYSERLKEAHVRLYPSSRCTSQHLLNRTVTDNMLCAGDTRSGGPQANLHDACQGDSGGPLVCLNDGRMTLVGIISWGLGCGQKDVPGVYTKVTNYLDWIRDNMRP

This passage reports binding results from US20080220446A1, “Method for Detecting and/or Removing Protein and/or Peptide Comprising a Cross-Beta Structure From an Aqueous Solution Comprising a Protein” (priority 2005, published 2008).

These are yes or no findings as the source states them, for the method shown. Some entries that bind do so weakly or less than the wild type.

As to “tissue-type plasminogen activator (tPA) (from UniProt P00750 36-562) (enzyme)”, the binding entry was “binds”.
